In publication doi:10.1101/2023.09.24.559210 one finds binding data, which are given here for 1 molecule.

Sequences of proteins named here, by UniProt entry; tags and fusion partners are left off. A change or cut given only in a name is not applied to a line headed by its entry.
UniProt Q9Y624: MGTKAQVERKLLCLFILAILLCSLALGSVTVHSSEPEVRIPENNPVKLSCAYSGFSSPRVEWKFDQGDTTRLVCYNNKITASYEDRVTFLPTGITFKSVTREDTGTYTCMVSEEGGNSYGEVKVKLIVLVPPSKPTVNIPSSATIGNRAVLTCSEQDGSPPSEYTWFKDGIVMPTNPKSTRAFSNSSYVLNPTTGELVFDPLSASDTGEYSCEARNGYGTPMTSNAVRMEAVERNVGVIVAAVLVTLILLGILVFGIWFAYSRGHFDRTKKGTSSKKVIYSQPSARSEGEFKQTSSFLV
UniProt Q15223: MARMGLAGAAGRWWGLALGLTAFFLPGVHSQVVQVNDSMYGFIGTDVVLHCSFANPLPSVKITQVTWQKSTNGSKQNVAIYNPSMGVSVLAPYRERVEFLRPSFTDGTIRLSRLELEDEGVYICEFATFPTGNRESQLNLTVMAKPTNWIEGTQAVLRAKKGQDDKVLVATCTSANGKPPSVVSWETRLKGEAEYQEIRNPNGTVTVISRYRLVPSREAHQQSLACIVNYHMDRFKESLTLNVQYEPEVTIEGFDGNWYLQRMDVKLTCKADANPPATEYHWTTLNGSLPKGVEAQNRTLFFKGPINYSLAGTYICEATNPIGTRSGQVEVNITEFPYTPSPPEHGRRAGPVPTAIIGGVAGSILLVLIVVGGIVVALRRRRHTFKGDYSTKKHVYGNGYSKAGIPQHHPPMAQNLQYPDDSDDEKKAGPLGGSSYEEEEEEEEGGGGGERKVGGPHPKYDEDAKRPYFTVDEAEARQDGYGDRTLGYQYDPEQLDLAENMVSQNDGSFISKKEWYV

In test [1] the target is JAM-A C-terminal domain of the tethered-ligand fusion constructs (UniProt Q9Y624). Description: single-molecule magnetic tweezers, force-jump.
In test [2] the target is nectin-1 C-terminal domain of the tethered-ligand fusion construct (UniProt Q15223). Description: single-molecule magnetic tweezers, force-jump.

Results are given in words; binding and its absence hold for the method and conditions named. A result given as binding can be weak or reduced; the word gives no strength. Sequences can lack the tags named with a protein.

B1: afadin PDZ domain of the tethered-ligand fusion constructs (domain or fragment, UniProt P55196 1007-1093)
chain: IITVTLKKQNGMGLSIVAAKGAGQDKLGIYVKSVVKGGAADVDGRLAAGDQLLSVDGRSLVGLSQERAAELMTRTSSVVTLEVAKQG
For the molecule B1, the binding entry in test [1] and in test [2] was “binds” throughout.
